{"source": "patent US20050249675A1", "about": "“Mucin synthesis inhibitors” (priority 2003, published 2005)", "test_system": "H292 clone 15 cells", "test": "PAS stain for intracellular (stored) mucins (Example 11)", "format": "cell-based, human", "conditions": "qualitative", "note": "At least one structure is not confirmed: it was looked up by name or label, or the drawing left a doubt.", "data": [{"compound": "O=C1OC(CC(=O)c2cccnc2Nc2cccc(C(F)(F)F)c2)c2ccccc21", "note": "(stereo not shown) [4 (MSI 2216)]", "values": [{"measurement": "PAS", "result": "+"}]}]}
